Measured data: PubChem BioAssay AID1259308 (NCATS, 2017)
Here is an unselected part of about 59,000 deposited reagents. About 1,510 of them (2.6%) count as active. 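Calls use total luciferase alone and ignore viability, so some active siRNAs may act by altering cell number.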 A number with no mark means an inactive call. Reagents against one gene are numbered here. Further read-outs or replicates are left out here. No sequences are given here.

Aim: 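Genes whose loss raises luciferase production in HEK293 cells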 (primary screen)
System: human HEK293 embryonic kidney cells stably expressing firefly luciferase (HEK-CMV-Luc2-Hygro)
Knock-down reagent: single siRNA against human genes, 0.8 pmol siRNA per well
Timing: 72 h
Detection: 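Luciferase light (ONE-Glo) measured on one replicate plate set and viability (CellTiter-Glo) on the other, scaled to a negative control siRNA, with robust z-scores and luciferase per cell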
Scale: total luciferase, z-score and total luciferase, % of control: higher = more reporter protein produced; luciferase per cell, z-score: higher = more reporter output per viable cell
Rule for the call: 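Active when the median/MAD z-score for overall luciferase is greater than 3; a gene was taken forward for validation with new siRNAs if at least two of its three siRNAs passed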
Calls: active = raised luciferase; inactive = no rise

| Target gene | reagent no. | total luciferase, z-score | total luciferase, % of control | luciferase per cell, z-score |
| --- | --- | --- | --- | --- |
| RAD51D | 1 | 0.11 | 84.1 | -0.573 |
| RAD51D | 2 | -1.48 | 52.5 | -1.64 |
| RAD51D | 3 | 1.71 | 116 | 3.11 |
| PIK3CD | 1 | 1.22 | 106 | 0.492 |
| PIK3CD | 2 | 1.01 | 102 | 0.402 |
| PIK3CD | 3 | 0.226 | 86.4 | -0.679 |
| DDX56 | 1 | -1.84 | 45.2 | -1.96 |
| DDX56 | 2 | 0.61 | 94 | 1.84 |
| DDX56 | 3 | -1.9 | 44.1 | -1.68 |
| EPS15 | 1 | -0.444 | 73 | -0.0769 |
| EPS15 | 2 | 0.133 | 84.5 | -0.173 |
| EPS15 | 3 | 0.918 | 100 | 0.265 |
| FAM209A | 1 | 2.82 | 138 | 2.78 |
| FAM209A | 2 | 7.91 (active) | 239 | 4.06 |
| FAM209A | 3 | -1.28 | 56.4 | -0.254 |
| UCMA | 1 | -1.51 | 51.9 | -0.928 |
| UCMA | 2 | 2.26 | 127 | 1.69 |
| UCMA | 3 | 0.271 | 87.3 | -0.235 |
| PRIM1 | 1 | -0.877 | 64.4 | -0.731 |
| PRIM1 | 2 | -1.28 | 56.5 | -1.64 |
| PRIM1 | 3 | -0.466 | 72.6 | -0.587 |
| PAK5 | 1 | -0.242 | 77.1 | 0.00402 |
| PAK5 | 2 | -0.0917 | 80.1 | 0.0806 |
| PAK5 | 3 | -1.12 | 59.6 | -0.946 |
| CD101 | 1 | -1.04 | 61.1 | -2.03 |
| CD101 | 2 | 0.798 | 97.8 | 0.696 |
| CD101 | 3 | -0.384 | 74.3 | 0.451 |
| ADAM21 | 1 | -0.025 | 81.4 | -0.286 |
| ADAM21 | 2 | 0.723 | 96.3 | 0.382 |
| ADAM21 | 3 | 0.424 | 90.3 | 0.163 |

A portion from the list above:
| Target gene | reagent no. | total luciferase, z-score | total luciferase, % of control | luciferase per cell, z-score |
| --- | --- | --- | --- | --- |
| RAD51D | 2 | -1.48 | 52.5 | -1.64 |
| RAD51D | 3 | 1.71 | 116 | 3.11 |
| PIK3CD | 1 | 1.22 | 106 | 0.492 |

Continued.
| Target gene | reagent no. | total luciferase, z-score | total luciferase, % of control | luciferase per cell, z-score |
| --- | --- | --- | --- | --- |
| COL11A1 | 1 | -0.832 | 65.3 | -0.158 |
| COL11A1 | 2 | -1.9 | 44.2 | -2.32 |
| COL11A1 | 3 | 1.8 | 118 | 1.38 |
| H3-3A | 1 | 0.561 | 93 | 0.672 |
| H3-3A | 2 | 1.67 | 115 | 2.33 |
| H3-3A | 3 | 0.546 | 92.7 | 0.17 |
| ACTN1 | 1 | -0.22 | 77.5 | -0.672 |
| ACTN1 | 2 | 1.5 | 112 | 1.5 |
| ACTN1 | 3 | 0.255 | 87 | 0.154 |
| TVP23B | 1 | -0.879 | 64.4 | 0.49 |
| TVP23B | 2 | -0.492 | 72.1 | -0.887 |
| TVP23B | 3 | 2.51 | 132 | 2.24 |
| NR2E1 | 1 | -0.0103 | 81.7 | 0.00907 |
| NR2E1 | 2 | -0.0747 | 80.4 | -0.319 |
| NR2E1 | 3 | -0.0311 | 81.3 | -0.418 |
| OAZ3 | 1 | -0.379 | 74.3 | -0.208 |
| OAZ3 | 2 | 0.991 | 102 | 1.53 |
| OAZ3 | 3 | 0.434 | 90.5 | 0.207 |
| FSD1L | 1 | -0.538 | 71.2 | -0.921 |
| FSD1L | 2 | -0.531 | 71.3 | -0.558 |
| FSD1L | 3 | 0.353 | 88.9 | 0.231 |
| CST8 | 1 | -0.505 | 71.9 | -0.437 |
| CST8 | 2 | -2.07 | 40.6 | -1.31 |
| CST8 | 3 | 3.47 (active) | 151 | 2.22 |
| CD226 | 1 | 1.87 | 119 | 0.687 |
| CD226 | 2 | -0.268 | 76.6 | -0.678 |
| CD226 | 3 | 0.499 | 91.8 | -0.0728 |
